Measurements as given in the supplement of paper PMC10849652.
The list shows a part of the results. Residues, ends and D or L forms follow the SMILES beside them. *: point of attachment. Cbz = O=C(OCc1ccccc1)*

Amino acid sequences for entries named in this document (tags omitted). A change or cut given only in a name is not applied to a line headed by its entry.
UniProt Q9Y4Y9: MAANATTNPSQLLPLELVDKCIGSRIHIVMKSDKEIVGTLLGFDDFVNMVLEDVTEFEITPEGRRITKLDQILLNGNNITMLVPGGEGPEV
UniProt Q969L4: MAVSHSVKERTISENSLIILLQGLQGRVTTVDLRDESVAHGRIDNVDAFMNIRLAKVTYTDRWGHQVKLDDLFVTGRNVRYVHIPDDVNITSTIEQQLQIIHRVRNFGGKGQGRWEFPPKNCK
UniProt Q13257, whole entry, looked up: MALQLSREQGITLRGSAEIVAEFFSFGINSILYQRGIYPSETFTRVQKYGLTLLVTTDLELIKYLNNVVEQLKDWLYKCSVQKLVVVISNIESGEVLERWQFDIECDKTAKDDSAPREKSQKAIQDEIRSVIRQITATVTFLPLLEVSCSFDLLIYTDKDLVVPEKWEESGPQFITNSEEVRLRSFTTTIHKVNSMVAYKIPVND
UniProt O14733: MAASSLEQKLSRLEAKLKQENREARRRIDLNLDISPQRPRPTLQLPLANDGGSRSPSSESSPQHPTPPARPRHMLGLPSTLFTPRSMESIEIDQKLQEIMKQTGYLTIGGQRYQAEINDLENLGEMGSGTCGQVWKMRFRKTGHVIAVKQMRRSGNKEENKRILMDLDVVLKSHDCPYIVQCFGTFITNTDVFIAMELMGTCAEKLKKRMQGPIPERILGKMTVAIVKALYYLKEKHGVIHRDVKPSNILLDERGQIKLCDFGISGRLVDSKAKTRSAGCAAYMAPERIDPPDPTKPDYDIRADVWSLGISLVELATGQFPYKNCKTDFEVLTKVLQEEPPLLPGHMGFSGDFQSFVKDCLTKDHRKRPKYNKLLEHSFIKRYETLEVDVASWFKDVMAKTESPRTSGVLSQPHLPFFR
UniProt Q16539, whole entry, looked up: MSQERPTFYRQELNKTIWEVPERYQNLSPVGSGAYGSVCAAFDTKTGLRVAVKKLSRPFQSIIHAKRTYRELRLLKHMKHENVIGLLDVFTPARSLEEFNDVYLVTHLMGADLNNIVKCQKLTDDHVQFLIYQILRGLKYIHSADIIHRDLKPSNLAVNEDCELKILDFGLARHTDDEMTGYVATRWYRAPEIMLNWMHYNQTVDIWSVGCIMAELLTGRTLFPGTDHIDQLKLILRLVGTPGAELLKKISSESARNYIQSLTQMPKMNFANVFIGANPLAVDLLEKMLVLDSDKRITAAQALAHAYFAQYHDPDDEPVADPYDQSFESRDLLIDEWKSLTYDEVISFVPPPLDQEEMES
UniProt P46734: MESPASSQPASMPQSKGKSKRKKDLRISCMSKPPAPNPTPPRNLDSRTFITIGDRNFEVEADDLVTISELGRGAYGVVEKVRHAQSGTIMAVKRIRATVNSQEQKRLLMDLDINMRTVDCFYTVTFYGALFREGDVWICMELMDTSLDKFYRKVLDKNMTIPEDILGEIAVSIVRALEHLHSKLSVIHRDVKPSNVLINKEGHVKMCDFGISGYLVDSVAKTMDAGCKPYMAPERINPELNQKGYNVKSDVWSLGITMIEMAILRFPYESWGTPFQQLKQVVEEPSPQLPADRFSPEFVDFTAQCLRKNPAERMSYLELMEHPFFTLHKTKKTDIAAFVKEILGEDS
UniProt Q16659, whole entry, looked up: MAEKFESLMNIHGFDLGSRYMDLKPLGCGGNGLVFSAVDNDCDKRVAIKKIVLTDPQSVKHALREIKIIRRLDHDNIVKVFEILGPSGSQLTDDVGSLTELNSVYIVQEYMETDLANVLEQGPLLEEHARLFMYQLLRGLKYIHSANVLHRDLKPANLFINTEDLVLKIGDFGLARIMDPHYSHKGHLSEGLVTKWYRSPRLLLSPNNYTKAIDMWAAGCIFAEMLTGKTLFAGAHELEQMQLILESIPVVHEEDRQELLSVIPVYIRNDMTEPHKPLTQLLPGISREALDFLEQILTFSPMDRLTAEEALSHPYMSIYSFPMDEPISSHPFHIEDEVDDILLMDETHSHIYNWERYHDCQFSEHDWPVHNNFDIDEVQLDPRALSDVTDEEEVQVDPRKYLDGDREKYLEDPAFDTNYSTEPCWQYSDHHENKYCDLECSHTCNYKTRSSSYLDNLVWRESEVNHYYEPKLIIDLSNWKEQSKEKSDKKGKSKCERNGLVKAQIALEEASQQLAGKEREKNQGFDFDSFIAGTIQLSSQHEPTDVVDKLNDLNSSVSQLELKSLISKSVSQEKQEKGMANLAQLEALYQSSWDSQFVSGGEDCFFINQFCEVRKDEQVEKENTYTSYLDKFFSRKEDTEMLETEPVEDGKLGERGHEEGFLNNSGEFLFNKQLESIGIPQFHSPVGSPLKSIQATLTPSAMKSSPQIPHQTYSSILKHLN
UniProt Q96QZ7: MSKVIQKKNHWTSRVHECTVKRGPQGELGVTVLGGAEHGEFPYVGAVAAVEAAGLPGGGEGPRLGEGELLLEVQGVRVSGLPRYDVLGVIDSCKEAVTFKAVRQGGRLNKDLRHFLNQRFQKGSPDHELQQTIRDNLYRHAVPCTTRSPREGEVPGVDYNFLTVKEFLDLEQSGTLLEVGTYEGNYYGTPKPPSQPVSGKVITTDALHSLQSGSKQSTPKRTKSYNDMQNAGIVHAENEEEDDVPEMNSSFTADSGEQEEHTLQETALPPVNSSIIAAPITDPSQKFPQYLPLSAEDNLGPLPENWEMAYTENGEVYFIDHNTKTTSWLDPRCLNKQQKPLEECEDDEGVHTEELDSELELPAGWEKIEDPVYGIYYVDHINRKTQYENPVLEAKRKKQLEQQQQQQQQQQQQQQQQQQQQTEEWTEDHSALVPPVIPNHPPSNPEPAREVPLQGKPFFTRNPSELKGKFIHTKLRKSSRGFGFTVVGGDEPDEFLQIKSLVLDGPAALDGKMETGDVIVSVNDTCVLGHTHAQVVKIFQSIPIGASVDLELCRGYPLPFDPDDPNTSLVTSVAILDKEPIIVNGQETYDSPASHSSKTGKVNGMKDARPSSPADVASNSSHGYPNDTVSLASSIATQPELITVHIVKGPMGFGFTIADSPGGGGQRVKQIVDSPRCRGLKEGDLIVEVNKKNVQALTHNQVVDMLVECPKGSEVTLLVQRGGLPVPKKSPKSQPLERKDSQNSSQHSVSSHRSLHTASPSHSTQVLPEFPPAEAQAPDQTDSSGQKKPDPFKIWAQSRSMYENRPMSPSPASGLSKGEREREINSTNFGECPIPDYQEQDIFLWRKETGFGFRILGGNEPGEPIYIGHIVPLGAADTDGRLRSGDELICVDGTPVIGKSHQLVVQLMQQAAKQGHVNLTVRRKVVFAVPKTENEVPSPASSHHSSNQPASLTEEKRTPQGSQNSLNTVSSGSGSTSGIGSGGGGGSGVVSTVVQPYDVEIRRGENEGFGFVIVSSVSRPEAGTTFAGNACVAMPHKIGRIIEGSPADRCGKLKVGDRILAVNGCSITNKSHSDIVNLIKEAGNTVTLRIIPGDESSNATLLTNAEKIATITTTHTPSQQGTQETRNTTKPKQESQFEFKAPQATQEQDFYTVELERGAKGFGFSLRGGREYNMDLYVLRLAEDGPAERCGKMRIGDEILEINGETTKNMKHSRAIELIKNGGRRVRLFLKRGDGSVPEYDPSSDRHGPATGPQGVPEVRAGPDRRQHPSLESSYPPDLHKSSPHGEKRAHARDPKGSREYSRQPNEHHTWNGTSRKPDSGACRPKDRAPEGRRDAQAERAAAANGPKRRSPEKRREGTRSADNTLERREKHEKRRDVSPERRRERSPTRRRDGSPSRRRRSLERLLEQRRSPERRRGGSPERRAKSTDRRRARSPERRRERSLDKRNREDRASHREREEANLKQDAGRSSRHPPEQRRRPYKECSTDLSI
UniProt P43361: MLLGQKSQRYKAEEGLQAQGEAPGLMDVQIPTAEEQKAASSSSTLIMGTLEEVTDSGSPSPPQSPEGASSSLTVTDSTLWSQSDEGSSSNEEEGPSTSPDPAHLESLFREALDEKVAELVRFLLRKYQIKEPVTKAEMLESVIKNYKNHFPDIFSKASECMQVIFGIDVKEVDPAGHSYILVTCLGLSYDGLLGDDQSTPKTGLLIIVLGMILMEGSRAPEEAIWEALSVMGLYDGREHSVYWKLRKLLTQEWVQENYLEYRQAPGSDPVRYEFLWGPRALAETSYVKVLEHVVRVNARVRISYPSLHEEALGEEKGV

What was measured:
Test in all cases: log2 fold change, soluble protein after heating vs DMSO (PISA); higher = thermal stabilisation; K562 cells, 10 uM, 30 min; active = over 0.2 and 3.5 SD of the protein, either way, in both replicates (recomputed)
IRAK-1-4 Inhibitor I = compound: C1COCCN1CCN2C3=CC=CC=C3N=C2NC(=O)C4=CC(=CC=C4)[N+](=O)[O-] [IRAK-1-4 Inhibitor I]
Summary of the method: (§1)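 K562 cells at 2×10^6 cells/mL were given 10 μM compound for 30 min. Aliquots then went through 3 min of heating across 48°C-58°C, were pooled, and were extracted in PBS with 0.5% NP-40 at 4°C, and the supernatant after 21,000xg for 90 min was quantified by TMTpro 16plex LC-MS/MS with channel sums equalised. Thermal stability relative to control samples, from duplicates, is given as log2 fold change.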

ibrutinib = compound: C=CC(=O)N1CCC[C@@H](n2nc(-c3ccc(Oc4ccccc4)cc3)c3c(N)ncnc32)C1 [ibrutinib]
Summary of the method: as §1

ralimetinib = compound: CC(C)(C)Cn1c(N)nc2ccc(-c3[nH]c(C(C)(C)C)nc3-c3ccc(F)cc3)nc21 [ralimetinib]
Summary of the method: as §1

[1] = compound: CC(C)(O)CC(=O)NCCn1ccc2ncnc(Nc3ccc(Oc4cccc(C(F)(F)F)c4)c(Cl)c3)c21
Summary of the method: as §1

[2] = compound: CC(C)C1=C2N=C(C=C(N2N=C1)NCC3=CC=CC=C3)NCCCCCCN
Summary of the method: as §1

[3] = compound: CC(C)C[C@@H](C=O)NC(=O)[C@H](CC(C)C)NC(=O)[C@H](CC(C)C)NC(=O)OCc1ccccc1
Summary of the method: as §1

pinometostat = compound: CC(C)N(C[C@H]1O[C@@H](n2cnc3c(N)ncnc32)[C@H](O)[C@@H]1O)[C@H]1C[C@@H](CCc2nc3cc(C(C)(C)C)ccc3[nH]2)C1 [pinometostat]
Summary of the method: as §1

[4] = compound: CC1=C(C(CC(=O)N1)C2=CC=C(C=C2)C(F)(F)F)C(=O)NC3=C(C=C4C(=C3)C=NN4)F
Summary of the method: as §1

[5] = compound: CC1=C(C2=C(C=C1)C(=O)C3=CC=CC=C3N2CCCN)C
Summary of the method: as §1

[6] = compound: CC1=C(C=C(C=C1)NC(=O)C2=CC(=CC=C2)C(C)(C)C#N)NC3=CC4=C(C=C3)N=CN(C4=O)C
Summary of the method: as §1

[7] = compound: CC1=C(C=C(C=C1)NC(=O)C2=CC(=CC=C2)N(C)C)NC(=O)C3=CC=C(C=C3)O
Summary of the method: as §1

[8] = compound: CC1=NC(=CC=C1)C2=C(N=C(N2)C(C)(C)C)C3=CC4=NC=CN=C4C=C3
Summary of the method: as §1

Nexturastat A = compound: CCCCN(Cc1ccc(C(=O)NO)cc1)C(=O)Nc1ccccc1 [Nexturastat A]
Summary of the method: as §1

[9] = compound: CCCc1cc(C)[nH]c(=O)c1CNC(=O)c1cc(-c2ccnc(N3CCN(C)CC3)c2)cc2c1cnn2C(C)C
Summary of the method: as §1

givinostat = compound: CCN(CC)Cc1ccc2cc(COC(=O)Nc3ccc(C(=O)NO)cc3)ccc2c1 [givinostat]
Summary of the method: as §1

barasertib = compound: CCN(CCCOc1ccc2c(Nc3cc(CC(=O)Nc4cccc(F)c4)[nH]n3)ncnc2c1)CCOP(=O)(O)O [barasertib]
Summary of the method: as §1

[10] = compound: CC1=CC=C(C=C1)SC2=C3C=C(SC3=CN=C2)C(=O)N
Summary of the method: as §1

[11] = compound: CCCS(=O)(=O)Nc1ccc(F)c(C(=O)c2c[nH]c3ncc(Cl)cc23)c1F
Summary of the method: as §1

[12] = compound: CC(=O)c1cnc2ccc(-c3cc(Cl)c(O)c(Cl)c3)nc2c1N[C@H]1CC[C@H](CN(C)C)CC1
Summary of the method: as §1

vemurafenib = compound: CCCS(=O)(=O)Nc1ccc(F)c(C(=O)c2c[nH]c3ncc(-c4ccc(Cl)cc4)cc23)c1F [vemurafenib]
Summary of the method: as §1

Measured: log2 fold change

LSM5 (UniProt Q9Y4Y9)
inactive: IRAK-1-4 Inhibitor I 0.136 | ibrutinib -0.042 | ralimetinib 0.164 | [1] 0.303 | [2] 0.187 | [3] 0.193 | pinometostat 0.086 | [4] 0.092 | [5] -0.02 | [6] 0.112 | [7] -0.063 | [8] -0.071 | Nexturastat A 0.042 | [9] -0.262 | givinostat -0.284 | barasertib 0.194

LSM10 (UniProt Q969L4)
inactive: IRAK-1-4 Inhibitor I -0.039 | ibrutinib -0.144 | [2] -0.171 | pinometostat -0.009 | [4] -0.13 | [5] 0.246 | [10] -0.329 | [8] 0.071 | [11] -0.075 | givinostat -0.017 | barasertib 0.187

MAD2L1 (UniProt Q13257)
inactive: IRAK-1-4 Inhibitor I 0 | ibrutinib -0.095 | [12] 0.008 | ralimetinib -0.004 | [1] -0.057 | [2] -0.112 | [3] -0.018 | pinometostat 0.031 | [5] -0.033 | [6] 0.019 | [7] -0.035 | [10] -0.003 | [8] 0.031 | Nexturastat A -0.103 | vemurafenib 0.028 | [11] 0.031 | [9] -0.129 | givinostat 0.02 | barasertib 0.018

MAP2K7 isoform 4 (UniProt O14733)
inactive: IRAK-1-4 Inhibitor I 0.013 | [12] 0.175 | ralimetinib -0.043 | [1] -0.013 | [2] -0.025 | [3] 0.051 | pinometostat 0.022 | [5] 0.032 | [6] -0.068 | [7] 0.003 | [10] -0.008 | [8] 0.009 | Nexturastat A -0.031 | vemurafenib -0.01 | [11] 0.009 | [9] -0.026 | givinostat -0.019 | barasertib 0.016
active: ibrutinib -0.301

MAPK14 (UniProt Q16539)
active: [12] 0.793 | ralimetinib 1.52 | [6] 1.62
inactive: IRAK-1-4 Inhibitor I -0.048 | ibrutinib 0.016 | [2] -0.178 | [3] -0.135 | pinometostat -0.09 | [5] 0.062 | [7] 0.615 | [10] 0.111 | [8] 0.022 | vemurafenib 0.059 | [11] 0.339 | [9] 0.002 | givinostat 0.03 | barasertib -0.029

MAP2K3 isoform 3 (UniProt P46734)
active: [12] -0.457
inactive: IRAK-1-4 Inhibitor I 0.012 | ibrutinib 0.032 | ralimetinib 0.02 | [1] 0.059 | [2] -0.035 | [3] -0.022 | pinometostat -0.012 | [5] -0.032 | [6] -0.071 | [7] -0.074 | [10] -0.051 | [8] -0.08 | Nexturastat A 0.103 | vemurafenib -0.031 | [11] -0.008 | [9] 0.021 | givinostat 0.002 | barasertib 0.042

MAPK6 (UniProt Q16659)
inactive: IRAK-1-4 Inhibitor I 0.097 | ibrutinib 0.152 | [12] -0.12 | [1] 0.076 | [2] 0.062 | pinometostat -0.001 | [4] -0.1 | [5] 0.006 | [6] -0.041 | [10] 0.011 | [8] 0.006 | Nexturastat A 0.037 | vemurafenib 0.022 | [11] 0.09 | [9] -0.009 | givinostat -0.003 | barasertib -0.061

MAGI1 (UniProt Q96QZ7)
inactive: IRAK-1-4 Inhibitor I 0 | ibrutinib 0.057 | [12] -0.071 | ralimetinib 0.014 | [1] 0.032 | [2] -0.009 | [3] 0.01 | pinometostat 0.025 | [5] 0.07 | [6] 0.041 | [7] 0.041 | [10] -0.027 | [8] -0.023 | Nexturastat A 0.074 | vemurafenib 0.018 | [11] -0.009 | [9] -0.026 | givinostat -0.013 | barasertib -0.008

MAGEA8 (UniProt P43361)
inactive: IRAK-1-4 Inhibitor I 0.014 | ibrutinib -0.086 | [12] 0.128 | ralimetinib -0.02 | [2] -0.146 | [3] 0.068 | pinometostat 0.024 | [5] -0.265 | [7] 0.009 | [10] 0.02 | [8] 0.072 | vemurafenib 0.031 | [11] 0.197 | givinostat 0.034 | barasertib -0.123
